From US10047051B2, “Substituted pyridines and method of use” (AbbVie S.á{acute over (.)}r.l., priority 2015, dated 2018)
Where “and” joins values, the source holds several entries; their conditions need not be identical. Equal values may be shown once. At least one read-out could not be matched to a standard name with certainty.

Sequences of proteins named here, by UniProt entry; tags and fusion partners are left off.
UniProt P13569, whole entry S549N: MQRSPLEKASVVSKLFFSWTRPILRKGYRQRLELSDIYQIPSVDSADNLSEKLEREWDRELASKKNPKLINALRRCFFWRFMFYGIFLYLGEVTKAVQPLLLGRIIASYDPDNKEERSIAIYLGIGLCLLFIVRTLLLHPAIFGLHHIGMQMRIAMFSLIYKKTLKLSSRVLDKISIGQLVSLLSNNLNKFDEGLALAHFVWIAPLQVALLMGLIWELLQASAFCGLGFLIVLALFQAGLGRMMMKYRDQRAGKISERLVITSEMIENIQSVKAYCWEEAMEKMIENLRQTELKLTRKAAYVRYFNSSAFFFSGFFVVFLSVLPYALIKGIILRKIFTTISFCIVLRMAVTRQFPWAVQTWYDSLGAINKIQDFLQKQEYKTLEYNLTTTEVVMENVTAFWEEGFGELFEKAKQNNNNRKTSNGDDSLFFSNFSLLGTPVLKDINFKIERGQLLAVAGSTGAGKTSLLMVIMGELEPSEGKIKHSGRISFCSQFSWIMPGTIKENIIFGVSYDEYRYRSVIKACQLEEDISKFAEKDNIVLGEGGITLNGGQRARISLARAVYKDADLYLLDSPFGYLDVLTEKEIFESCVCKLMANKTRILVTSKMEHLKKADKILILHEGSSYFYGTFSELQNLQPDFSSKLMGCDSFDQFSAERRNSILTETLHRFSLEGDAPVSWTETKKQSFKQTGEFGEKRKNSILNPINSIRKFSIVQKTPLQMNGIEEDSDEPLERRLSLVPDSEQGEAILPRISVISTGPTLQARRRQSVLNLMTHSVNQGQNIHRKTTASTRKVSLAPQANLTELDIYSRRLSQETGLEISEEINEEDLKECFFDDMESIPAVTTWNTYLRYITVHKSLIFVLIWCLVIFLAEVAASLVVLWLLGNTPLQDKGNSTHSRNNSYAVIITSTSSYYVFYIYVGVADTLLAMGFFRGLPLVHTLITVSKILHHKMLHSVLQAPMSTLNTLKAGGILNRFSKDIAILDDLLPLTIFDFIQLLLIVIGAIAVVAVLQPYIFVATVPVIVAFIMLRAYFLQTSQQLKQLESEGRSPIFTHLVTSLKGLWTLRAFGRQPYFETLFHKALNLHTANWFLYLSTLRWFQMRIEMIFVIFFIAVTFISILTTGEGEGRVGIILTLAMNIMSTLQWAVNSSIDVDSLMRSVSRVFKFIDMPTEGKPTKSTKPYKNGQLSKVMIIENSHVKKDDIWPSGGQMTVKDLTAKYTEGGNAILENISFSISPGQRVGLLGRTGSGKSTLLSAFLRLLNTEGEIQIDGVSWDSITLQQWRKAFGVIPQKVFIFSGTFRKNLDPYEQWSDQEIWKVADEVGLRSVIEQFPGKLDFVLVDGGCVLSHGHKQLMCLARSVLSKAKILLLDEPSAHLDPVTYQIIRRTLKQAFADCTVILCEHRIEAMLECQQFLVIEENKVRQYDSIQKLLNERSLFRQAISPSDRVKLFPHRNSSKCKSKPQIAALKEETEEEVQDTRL

Molecular target: T1, CFTR-S549N (Homo sapiens, UniProt P13569, S549N)
T1 construct: expressed in transfected cells
Experiment: YFP-halide influx assay for the CFTR-S549N
Type: cell-based
Parameters: concentration or dose not given beside the values
Text: The YFP halide influx assay measured the functionality of the cystic fibrosis Transmembrane Conductance regulator (CFTR) channels. The assay was used to evaluate the capacity of compounds to increase the channel opening of existing mutant CFTR channels in the membrane. It makes use of the observation that the yellow fluorescent protein (YFP) variant YFP H148Q, I152L, F47L has its fluorescence substantially quenched by halide ions like Cl^− and I^− (Galietta, L. J. V., Haggie, P. M., Verkman, A. S., 2001. Green fluorescent protein-based halide indicators with improved chloride and iodide affinities. FEBS Lett. 499, 220-224. doi:10.1016/S0014-5793(01)02561-3).
For this purpose, HEK293-cells were seeded in 96 well plates. During seeding, the cells were reverse-transfected with plasmid vectors that direct the expression of the CFTR G551D mutant and of the YFP reporter. Cells were incubated at 37° C., 5% CO2 for 24 hours so as to allow for sufficient expression of the CFTR protein.
The I^−-induced quenching of fluorescence was recorded immediately after injection of I^− for 7 seconds. The capacity of a compound to increase the channel opening was directly correlated with the decrease in fluorescence, and was expressed as (1−(fluorescence after 7 seconds (F)/fluorescence before injection (F0))) and an EC50 was derived from a (1−F/F0) vs compound concentration plot. […]

Nc1cc(S(=O)(=O)c2ccccc2OC(F)(F)F)cnc1C(=O)NCCO [Compound 75, 3-amino-N-(2-hydroxyethyl)-5-{[2-(trifluoromethoxy)phenyl]sulfonyl}pyridine-2-carboxamide]
% Activation: 107.0% and 107.2%
